The target in assay [1] is T1, recombinant FLAG/DHFR-tagged disintegrin and thrombospondin domains (Dis/TSP) of ADAMTS4 (human) (UniProt O75173).
T1 sequence: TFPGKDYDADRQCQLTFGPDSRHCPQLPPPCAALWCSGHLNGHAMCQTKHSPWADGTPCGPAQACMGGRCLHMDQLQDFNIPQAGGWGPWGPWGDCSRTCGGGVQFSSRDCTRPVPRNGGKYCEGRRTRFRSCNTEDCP
As to the kind of experiment: immunoblotting of FLAG/DHFR-tagged domain proteins, antibody 2 µg/ml. Background: In western blotting, separated proteins are transferred to a membrane and probed.

Assay [2] concerns the target T2, Recombinant ADAMTS4 (R&D Systems Inc.) (Homo sapiens (Human)) (UniProt O75173).
T2 sequence: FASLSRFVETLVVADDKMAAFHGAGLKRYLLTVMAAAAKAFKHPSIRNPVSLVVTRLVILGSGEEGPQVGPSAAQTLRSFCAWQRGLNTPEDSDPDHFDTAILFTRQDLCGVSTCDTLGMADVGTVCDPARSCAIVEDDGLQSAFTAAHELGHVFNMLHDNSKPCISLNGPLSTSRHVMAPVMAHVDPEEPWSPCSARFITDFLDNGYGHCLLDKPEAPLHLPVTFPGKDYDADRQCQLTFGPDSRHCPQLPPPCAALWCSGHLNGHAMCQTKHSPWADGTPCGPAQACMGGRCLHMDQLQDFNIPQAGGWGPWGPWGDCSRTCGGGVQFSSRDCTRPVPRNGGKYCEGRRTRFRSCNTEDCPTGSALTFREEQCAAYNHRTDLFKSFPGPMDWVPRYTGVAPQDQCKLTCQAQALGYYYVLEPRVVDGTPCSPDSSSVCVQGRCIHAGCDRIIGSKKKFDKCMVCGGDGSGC
Kind of assay: ELISA of Fab extracts on the antigen. For orientation: ELISA stands for enzyme-linked immunosorbent assay.

No constants are given. Whether binding was seen depends on the method and setting. Some results given as binding are weak or reduced against the parent protein; the word gives no strength. For some assays here: Sequences can lack the tags named with a protein.

This note sets out measurements from patent publication US20160304622A1.

B1: human anti-ADAMTS antibody (IgG1; clone 237-53) (antibody, V domains shown)
VH: QVQLVQSGAEVKKPGSSVKVSCKASGGTFSSFAISWVRQAPGQGLEWMGGIFPIFGQANYAQKFQGRVTITADESTSTAYMELSSLRSEDTAVYYCARFSDWWEWQMDYWGQGTLVTVSS
VL: DIVMTQSPDSLAVSLGERATINCRSSQSILYSSNNNYLAWYQQKPGQPPKLLIHTASARESGVPDRFSGSGSGTDFTLTISSLQAEDVAVYYCQQYYSVSITFGQGTKVEIKR
B1: in assay [1], the binding entry is given as “binds”.

B2: Fab of clone 237-53 (Fab, V domains shown)
VH: B1 VH
VL: B1 VL
With B2, the binding entry in assay [2] is “binds”.
